# Screen size: about 400,000 compounds; about 5,500 (1.4%) were called active. The inconclusive results got no clear call from the source; some entries with a clear call stand among them for comparison. Calls come from the whole dose curve; as a rule, active = well fitted cell-killing curve with a large enough effect; inconclusive = small, poorly fitted or top-dose-only effect, or effect the other way; inactive = flat fitted curve, though single readings scatter. Potencies beside an inconclusive call are fits to weak or partial responses and may not hold up.
# Test: qHTS assay for MDR1-selective chemotherapeutics: Primary screen using the parental adenocarcinoma cell KB-3-1; note: nearly all actives have a fitted effect of over 60% in size
# Settings: KB-3-1 viability, CellTiter-Glo ATP luminescence, 72 h; activity change, negative = cytotoxic: at 46.1 µM (top of the series)
# In short: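 KB-3-1 parental drug-naive adenocarcinoma cells in DMEM/10% FBS, incubated 72 h at 37 C with pin-transferred compounds across a concentration series. Viability by CellTiter-Glo luminescence; concentration-response curves fitted after normalization.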
# % is set by controls: 0 for no effect and ±100 for the full control effect; potency is the fitted concentration of half-maximal effect.
SMILES,Potency,"activity change, negative = cytotoxic"
N#Cc1ccccc1-n1c(N)c(C(=O)N2CCCC2)sc1=S,"inconclusive: 25.9 µM [cytotoxic, single point]",–
CCOC(=O)C1=C(C)NC(=O)NC1c1ccc(-c2ccc(Cl)cc2)o1 (configuration not stated),"inconclusive: 18.4 µM [cytotoxic, single point]",–
CCOC(=O)c1cnc2ccc(OCC)cc2c1N1CCN(c2ccccc2)CC1,"inconclusive: 16.4 µM [cytotoxic, single point]",–
COc1ccc(NC(=O)N2CCCC2C(=O)NCCc2ccccc2)cc1 (configuration not stated),inactive,–
N#Cc1cccc2c1-c1ccccc1/C2=N/NC(N)=S,"inconclusive: 18.4 µM [cytotoxic, single point]",–
O=C(C[n+]1ccccc1)c1ccc(I)cc1,"inconclusive: 23.1 µM [rising, partial curve, poor fit]",–
COc1ccc(Cl)cc1NC(=O)CNc1ccccc1F,–,inconclusive: -47.8% [cytotoxic]
O=C(Nc1ccncc1)c1cc(C2CCCCN2C(=O)CCCc2ccccc2)on1 (configuration not stated),inactive,–
CCCN1C(=O)C(=O)c2cc(C)ccc21,active: 6.51 µM,–
O=C/C(=C\Nc1ccc(S(=O)(=O)CCO)cc1)c1nc2cc(Cl)ccc2o1,inactive,–
Nn1c(Nc2ccccc2)nc2sc3c(c2c1=O)CCC3,"inconclusive: 29.1 µM [cytotoxic, single point]",–
CCC(C)(C)NC(=O)C(c1cccn1C)N(Cc1ccc(OC)cc1)C(=O)Cn1nnc2ccccc21 (configuration not stated),"inconclusive: 29.1 µM [cytotoxic, single point]",–
CC(C)=C1C2CCC1C1C(=O)N(c3nc(-c4ccc(C(C)C)cc4)c(C)s3)C(=O)C21 (configuration not stated),"inconclusive: 29.1 µM [cytotoxic, single point]",–
Cc1cccc(CSc2nnc(CCCCCNC(=O)OC(C)(C)C)o2)c1,"inconclusive: 2.31 µM [rising, full curve]",–
Cc1ccn2c(Nc3ccc4c(c3)OCCO4)c(-c3ccc(C)o3)nc2c1,inactive,–
O=[N+]([O-])c1cc(-c2ncccn2)c([N+](=O)[O-])s1,active: 16.4 µM,–
Cc1c(C(=O)NCc2ccccc2Cl)sc2ncnc(N(C)C3CCCCC3)c12,active: 20.6 µM,–
COc1ccc(OC)c(CNS(=O)(=O)c2cn(C)cn2)c1,inactive,–
CCOc1ccccc1CNC(=O)C1CCCN(c2nn3c(=O)cc(C)nc3s2)C1 (configuration not stated),"inconclusive: 32.6 µM [rising, single point]",–
CCNC(=O)C1CCN(S(=O)(=O)c2ccc3c(c2)CCCN3C(C)=O)CC1,inactive,–
C=CCNC(=S)NNC(=O)c1ccc(OCCCC)cc1,inactive,–
Cc1nc2c(ccc3nc(NC(=O)C4CC4)sc32)s1,"inconclusive: 29.1 µM [cytotoxic, single point]",–
CCOC(=O)c1c(NC(C)=O)sc2c1CCC(C=NCCCN(CC)CC)=C2Sc1ccccc1,"inconclusive: 23.1 µM [cytotoxic, single point]",–
COc1ccc(CC(=O)N/N=C(\C)c2ccccn2)cc1,"inconclusive: 10.3 µM [cytotoxic, partial curve, poor fit]",–

SMILES,Potency,"activity change, negative = cytotoxic"
CC1(C)CC(=O)C=C(c2n[nH]nc2C2=CCCCC2)C1,inactive,–
COc1ccc(Br)cc1CNC(=O)c1cnc2sc(N3CCC(C)CC3)nn2c1=O,"inconclusive: 29.1 µM [rising, single point]",–
CN(C)c1ccc(N=Cc2nc(-c3ccccc3)oc2OC(=O)c2cccc(Cl)c2)cc1,"inconclusive: 32.6 µM [rising, single point]",–
O=C(N/C(=C/c1cccc(Br)c1)c1nc(=S)[nH][nH]1)c1ccccc1,"inconclusive: 16.4 µM [cytotoxic, single point]",–
CCC(C)N1C(=O)CN(C2CCCCCC2)C(=O)C1c1ccccc1F (configuration not stated),inactive,–
CCCCNC(=O)CCCCCn1c(=O)[nH]c2ccccc2c1=O,inactive,–
Cc1ccc(S(=O)(=O)c2nnn3c2nc(NCc2ccc4c(c2)OCO4)c2sccc23)cc1C,inactive,–
C=CCNC(=O)c1cc2cc(Cl)ccc2nc1N,"inconclusive: 29.1 µM [rising, single point]",–
Cc1ccc(NC(=O)CSc2n[nH]c(-c3ccccn3)n2)cc1,"inconclusive: 29.1 µM [cytotoxic, single point]",–
COc1cc(/C=C2/SC(=S)N(Cc3ccccc3)C2=O)ccc1OS(C)(=O)=O,"inconclusive: 29.1 µM [cytotoxic, single point]",–
COc1ccc(-c2cnnn2-c2ccc(NC(=O)c3ccccc3OC)cc2)cc1,"inconclusive: 32.6 µM [cytotoxic, single point]",–
Cc1sc(NC(=O)c2ccco2)c(CN2CCC(C)CC2)c1C,"inconclusive: 29.1 µM [cytotoxic, single point]",–
NC(=O)c1cccc(-c2csc(C(O)c3cccc(Cl)c3)n2)c1 (configuration not stated),"inconclusive: 23.1 µM [cytotoxic, partial curve, poor fit]",–
O=C(COC(=O)c1cc(=O)[nH]c2ccccc12)Nc1ccccc1F,"inconclusive: 16.4 µM [rising, single point]",–
CNCCC1Sc2ccccc2Oc2ccccc21 (configuration not stated),inactive,–
Nc1c(C(=O)c2ccc(Cl)cc2)oc2ccccc12,inactive,–
Nc1ccc2nc(-c3ccccc3)sc2c1,active: 16.4 µM,–
COc1cccc(CN2CCN(C(=O)c3ccc(-c4ccccc4)cc3)CC2)c1OC,inactive,–
COC(=O)c1cc2c(n1S(=O)(=O)c1ccc(C)cc1)C(=O)C(=O)c1[nH]cc(C(=O)OCc3ccccc3)c1-2,active: 3.26 µM,–
CCn1c2ccccc2c2cc(NC(=O)CSc3nnc(-c4cccc(Cl)c4)o3)ccc21,"inconclusive: 29.1 µM [cytotoxic, single point]",–
C1=Cc2ccccc2/C1=C\c1ccc(/C=C2\C=Cc3ccccc32)cc1,"inconclusive: 16.4 µM [rising, single point]",–
Cc1ccccc1-c1cccc([C@@H]2C[C@H]3[C@H](CON3C)CN2Cc2cc(Cl)cc(Cl)c2)c1,"inconclusive: 18.4 µM [cytotoxic, partial curve, poor fit]",–
O=C(COC(=O)c1ccco1)Nc1cccc(S(=O)(=O)N2CCOCC2)c1,inactive,–

# Of the compounds above, these have a cyano group.
SMILES,Potency,"activity change, negative = cytotoxic"
N#Cc1ccccc1-n1c(N)c(C(=O)N2CCCC2)sc1=S,"inconclusive: 25.9 µM [cytotoxic, single point]",–
N#Cc1cccc2c1-c1ccccc1/C2=N/NC(N)=S,"inconclusive: 18.4 µM [cytotoxic, single point]",–

# Random excerpt: two entries already listed
SMILES,Potency,"activity change, negative = cytotoxic"
CCC(C)N1C(=O)CN(C2CCCCCC2)C(=O)C1c1ccccc1F (configuration not stated),inactive,–
Nc1ccc2nc(-c3ccccc3)sc2c1,active: 16.4 µM,–

# From PubChem BioAssay AID1347075 (National Center for Advancing Translational Sciences (NCATS), 2019)
